Test results published in PubChem BioAssay AID1508600 (Functional Genomics Laboratory (NCATS/FGL), 2020).
Screen size: about 53,000 sequences; about 3,700 (7%) were called active.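 How the source made its calls: active means gene knockdowns whose robust z-score for IL-1 alpha signal is at least 2 or at most -2, so actives lie on both sides; inactive means the rest.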 This is one part of the list.

assay: Components of the Cytosolic LPS Sensing Pathway: Gene Identification via Genome-wide siRNA Screen; settings: RAW264.7 macrophages, IL-1a HTRF, actives lie on both sides, screened at 100 nM (by protocol), cells primed 5 h with Pam3CSK4 first;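 further: robust z of the log signal after scaling to non-targeting control siRNA wells of the plate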
How it was run: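 Three distinct siRNAs per gene were tested singly at 100 nM in RAW264.7 macrophages. Following Pam3CSK4 priming and 24 hour LipidA transfection, IL-1a secretion was read by HTRF.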

Row | Sequence | z-score
1 | GGACCUUACUAACUUGACCTT against Lrrc9 | inactive: 1.73
2 | GAUUGGAGUGGUCUCUGCUTT against Mlec | inactive: 0.0197
3 | CCAUUGUUUUCCAGUUCCATT against Dgkeos | inactive: 0.494
4 | GCAGUACCGAGCAGCAGAATT against Acad10 | active: -2.41
5 | GGAAGACUUUCUGGACAUATT against Sgk2 | active: 2.44
6 | GAAACCAGUAGACAAAUACTT against Arv1 | inactive: -0.215
7 | GGACUUUAAGCCAUUACGATT against Cltb | inactive: -0.569
8 | GGAAAUCAAGCUGAAGUUATT against Eqtn | inactive: 0.231
9 | GGCGACUGUGCAAUUUCAUTT against Ceacam1 | inactive: 1.54
10 | GGACUCAGAUAUCUUUCAGTT against Adck1 | inactive: -0.328
11 | CGAGCAACCACUGAUCAAGTT against Grap | inactive: 0.774
12 | GGCACACUUGAGAAGACACTT against Cul5 | inactive: -0.601
13 | GCUUCGGCAUCGAUCAGAUTT against Tlx2 | inactive: -0.822
14 | GCACCUGGAGUACAUAAAATT against Sh2d1a | inactive: -0.854
15 | GCCCGAUGACACGAGGAUUTT against Zfp39 | inactive: -1.81
16 | GGAUUUUAUGAACAUUUGCTT against Agk | inactive: -0.396
17 | GGCCCUUUGACCUCAAGAATT against Myh7 | inactive: -0.38
18 | GCUGGGCUUUCCAAGUUACTT against Tomm20 | inactive: 0.669
19 | GGACAAACUAUGAAAACAGTT against Ube2v2 | inactive: -0.473
20 | GCUAUGUGUACAGCUGCUGTT against Vmn1r62 | inactive: 0.21
21 | GGAAGAAAGAUUCUCACUGTT against Entpd3 | inactive: -0.554
22 | CCAGCAAACUGUUGAUCCCTT against Oit3 | inactive: 0.341

Look-ups from above.
z-score, GGACCUUACUAACUUGACCTT against Lrrc9 reads inactive: 1.73
z-score, GCAGUACCGAGCAGCAGAATT against Acad10 reads active: -2.41
z-score, GGACUUUAAGCCAUUACGATT against Cltb reads inactive: -0.569

Next results.

Row | Sequence | z-score
23 | GGAUUUCAAGGGAAUUUGATT against Wbp4 | inactive: -0.271
24 | CGUGGGCCUAUGCUUGUCATT against Tsc1 | inactive: 0.32
25 | GGGCUACAGCAUGUAUGAGTT against Zc3h4 | inactive: 0.814
26 | CGAUCCCUGUCUGUUGGAUTT against Spint4 | inactive: 0.944
27 | GGCCUAGACAUACAUGAAATT against Bnip3l | active: 2.93
28 | GCUCUUCAAUAAUAUGUCATT against Cdh26 | inactive: 1.16
29 | GGUUUCUUCAUUUGUUUGCTT against Syt2 | inactive: -1.1
30 | GGAUUCAGAGAAAGAAAACTT against Azi2 | inactive: 0.443
31 | GCAAGCUUUUUUGAAGCAGTT against Ppil4 | inactive: 0.544
32 | GGGAACGCAACAUUUCUCCTT against Oxld1 | active: 2.34
33 | GCUGUUCAUUGAGUAUCCCTT against Irf2bpl | inactive: -1.62
34 | GGCACGUGAUAAAGGGUUCTT against Pcdha7 | active: 2.56
35 | GGUUAAGGAAAUAUUGUGATT against Gpalpp1 | inactive: 0.405
36 | GGAUAUCAGUGAUGACCAUTT against Uckl1 | inactive: 0.256
37 | GCCUUCACAGAAGAAGCAUTT against Doc2a | inactive: -1.05
38 | CGUGGUAGUGAAAAUUGAGTT against Xbp1 | inactive: 0.282
39 | CCCUAUCAUCAGUUUCCGGTT against Cfap65 | inactive: -0.179
40 | GGAUUCAUCAGACAUUAAGTT against 4930503L19Rik | inactive: -0.0357
41 | GGACUGACUGGCUUCAUUGTT against Atl2 | active: -2.52
42 | GGCUCUGCGCAUCACCAAUTT against Nfasc | inactive: -1.07
43 | GGAAACUGAGACAGGCCUUTT against Pgls | inactive: -0.258
44 | GGGAGAGAUUCUUCUUCAGTT against Cep68 | inactive: 0.905

Row | Sequence | z-score
45 | GGAAAUCCUCAGACAAAUGTT against Pdc | inactive: 0.93
46 | CCUGAUCAUGUUGAAGGAATT against Ktn1 | inactive: 0.256
47 | GGAUAUUUGUCAUUUCCUUTT against Tmcc2 | inactive: -0.819
48 | GGAGGACUACAGAAAGCCUTT against Olfr1167 | inactive: -1.92
49 | GGGACUUUAAGAAAAACUATT against Sparcl1 | inactive: -0.181
50 | GGAGGAUGAUGAGGAGGAUTT against Ppp1r1b | active: 2.35
51 | GGAGAAGGUUGCUGUAAAATT against 1700012A03Rik | inactive: 1.8
52 | GGCGAUCAGAGUUCAGGUATT against Hps1 | inactive: -0.596
53 | GCUAAUCCCAACAUGCCUGTT against Pum1 | inactive: -0.498
54 | GGGAAUGAGCUUUUGCCUATT against Akr1c18 | inactive: -0.989
55 | GCUUGAAUUGUGUAGUAAUTT against B3gntl1 | inactive: 1.51
56 | GCUAGUACUAUUACCUGCUTT against Enkd1 | active: 2.17
57 | GGGAAGAUGUGAGAAACUGTT against Xpnpep2 | inactive: 0.112
58 | CGGUCACACAAAAAACAGATT against Nkapd1 | inactive: 0.272
59 | GGGAGGAAGUGUUCUUCUCTT against Psg18 | inactive: -0.212
60 | GGAACUGGAAAGAGUUCUUTT against Foxo1 | inactive: 0.165
61 | GGCCACUGACCAUGAAGAATT against Gata2 | inactive: -0.289
62 | GGCCUACUUCCUACUCAAATT against Tbx10 | inactive: -1.85
63 | CGAGCACAGUGACUACUACTT against Micall2 | inactive: -1.18
64 | GGCUCAUCCAAAAUAGAGGTT against Napa | inactive: -0.381
65 | GGCUUCUUCGCUCAGAAAUTT against Dnase2a | inactive: 0.541
66 | GCGGAUCUCUGAUUUAUAUTT against Traf5 | inactive: -1.34

In another format: entries from further up
Row,Sequence,z-score
49,GGGACUUUAAGAAAAACUATT against Sparcl1,inactive: -0.181
50,GGAGGAUGAUGAGGAGGAUTT against Ppp1r1b,active: 2.35
51,GGAGAAGGUUGCUGUAAAATT against 1700012A03Rik,inactive: 1.8

More records follow.

Row | Sequence | z-score
67 | GGAAGAACUUCAGAAUGCATT against Slirp | inactive: -0.627
68 | CCCUUUGCUUAACCUUGCATT against Olfr1258 | inactive: -0.378
69 | GGCGAUAGACGAGUAUCAGTT against Aida | inactive: 0.41
70 | GGUGGAUUUAGUUUCUGCATT against C1d | inactive: 0.264
71 | GGUGGAAAGUGCAUAGACATT against Notch3 | inactive: 0.789
72 | GGACAAAUUCCUUCUUUUCTT against Olfr651 | inactive: -0.36
73 | GGAAAUUCACACAGAUGAATT against Mtmr12 | inactive: -1.27
74 | GGAGUUUGUGAAUAAAUGUTT against Map2k2 | inactive: 0.177
75 | GGCAUUGACGAGGAUGACCTT against Supt3 | active: 2.74
76 | GGACGUAGAUUGGUACCUCTT against Emsy | inactive: -1.18
77 | GGACCUGGAGAAAGUCAAGTT against Pacsin1 | inactive: 1.22
78 | CGUAGACAUGGCCUUUUUUTT against Dipk1c | inactive: -0.863
79 | GGAUCUGAUGCGUCAGAGATT against Gigyf2 | inactive: 0.579
80 | GCCGACAGCUCCUUUAACUTT against Scamp4 | inactive: -0.799
81 | GGAACCACAUCUCAGCAGGTT against Wnk1 | inactive: -0.961
82 | GCAAUAAGCACCUUCCAUUTT against Gltp | inactive: -0.961
83 | GGAUGUACAAUAAUUGGGATT against Pramel39 | inactive: 1.45
84 | CCCUAUGUCCGUUCCAAGGTT against Rpl18 | inactive: 1.32
85 | CCGACCUGAAGACCUUACATT against Tmem18 | inactive: -0.501
86 | GCUACACAACUCUCCAUUATT against Crtam | inactive: -1.97
87 | GCAUUUUAGCCUUCGGACATT against C9 | inactive: -0.483
88 | GUCACCCGCUCAAAUCAGATT against H2bc21 | inactive: 1.45

Row | Sequence | z-score
89 | GGAGAGGAAGAUGAUAAAATT against Cdx4 | inactive: 1.25
90 | GGAAUACAAAAAUUACCUGTT against Bdnf | inactive: -0.00754
91 | GCGAUGAAGAGAACUUAAGTT against Pts | inactive: 1.08
92 | GUGCAGAUACUACCUACAATT against Olfr132 | inactive: 0.0398
93 | CGACCAGAGUUAUCUGAAUTT against Ctf2 | active: 2.2
94 | GCUCACAAGAUGGUUCGGGTT against Rab3il1 | inactive: -0.546
95 | GGGUGUGCUUCAUAUCAAATT against 2210407C18Rik | inactive: 0.812
96 | GCACAGUGUAACUUAGGGCTT against Cenpb | inactive: -0.525
97 | GCCAGCUUUUAGUAUCAACTT against Sun1 | active: 2.4
98 | GGUUCUUUUAUGGAUGACATT against Prkaa2 | inactive: -0.964
99 | CGACACACCUAGCUAAACCTT against Dgkeos | inactive: -1.98
100 | GGCCAAAUAACCACUGUGGTT against Lsm10 | inactive: -1.91
101 | GGUAGUAAGUGGCAGUCCUTT against Zic5 | inactive: 0.264
102 | AGUCAUGAAGCAAAUGAUUTT against Olfr900 | inactive: -0.318
103 | CCUAUACAUGCUACUGAACTT against Itga9 | inactive: -0.723
104 | GGCAUUCAGUGUUGCGUACTT against Apba1 | inactive: -0.245
105 | GGUGAUGAUCCCAUGGGUUTT against Ube2g2 | inactive: -0.289
106 | CCCAAAUGUUAUUCCAAAUTT against Cfap300 | inactive: 1.07
107 | GCCGGUGGAAUAUGCUCCATT against Clrn3 | inactive: -0.614
108 | GGACUGAAGCUUACUUUCUTT against Fndc7 | inactive: 0.155
